Assay results: patent publication US20210163601A1
These are yes or no findings as the source states them, for the method shown. Some entries that bind do so weakly or less than the wild type.

Chains of the proteins cited; added tags and fusions are not shown. Lines headed by an entry give the natural chain unless they say otherwise; changes in a name come on top.
UniProt P07307: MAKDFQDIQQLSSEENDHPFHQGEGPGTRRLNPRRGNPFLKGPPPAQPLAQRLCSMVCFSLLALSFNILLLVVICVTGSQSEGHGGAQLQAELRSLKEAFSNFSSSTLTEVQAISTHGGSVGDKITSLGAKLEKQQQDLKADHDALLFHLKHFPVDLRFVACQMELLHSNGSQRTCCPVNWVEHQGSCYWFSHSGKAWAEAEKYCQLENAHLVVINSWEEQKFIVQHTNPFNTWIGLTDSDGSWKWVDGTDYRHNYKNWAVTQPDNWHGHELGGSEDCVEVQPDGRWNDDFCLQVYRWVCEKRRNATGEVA

B1: 6G7 (antibody, V domains shown)
VH: QVQLVESGGGVVQPGRSLRLSCAASGFTFSSYGMHWVRQTPGKGLEWVAIISYVGKNKYYADSVKGRFTISRDNSKNTLYLQMNSLRAEDTAVYYCARRGNSYGGYGMDVWGQGTTVTVSS
VL: DIQMTQSPSSRSASVGDRVTITCQASQDISNYLNWCQQKPGKALKLLIYDASTLETGVPSRFSGSGSGTDFTFTISSVQPEDIATYYCQQYDNVPITFGQGTRLEIK
B2: 7F4 (antibody, V domains shown)
VH: QLQLQESGPGLVKPSETLSLTCTVSGGSISRSSYYWGWIRQPPGKGLEWIGNIYYSGATYYNPSLKSRVTISVDTSTNQFSLKLSSVTAADTAVYYCARHSGSWSLDYWGQGTLVTVSS
VL: DIQMTQSPSSLSASVGDRVTITCRTSQGIRNDLGWYQQKPGKAPKRLIYAASNLQSGVPSRFSGSGSGTEFTLTISSLQPEDFATYYCLQHSAYPLTFGGGTKVEIK

Biological target: Human ASGR-2 (human) (UniProt P07307)
Experiment: FACS, transfected HEK 293 cells or membrane-prep beads

Row | Binder | binding
1 | B1 | binds
2 | B2 | binds
